# Source: PubChem BioAssay AID504847 (National Center for Advancing Translational Sciences (NCATS), 2011)
# Chains of the proteins cited; added tags and fusions are not shown. Lines headed by an entry give the natural chain unless they say otherwise; changes in a name come on top.
# UniProt P11473: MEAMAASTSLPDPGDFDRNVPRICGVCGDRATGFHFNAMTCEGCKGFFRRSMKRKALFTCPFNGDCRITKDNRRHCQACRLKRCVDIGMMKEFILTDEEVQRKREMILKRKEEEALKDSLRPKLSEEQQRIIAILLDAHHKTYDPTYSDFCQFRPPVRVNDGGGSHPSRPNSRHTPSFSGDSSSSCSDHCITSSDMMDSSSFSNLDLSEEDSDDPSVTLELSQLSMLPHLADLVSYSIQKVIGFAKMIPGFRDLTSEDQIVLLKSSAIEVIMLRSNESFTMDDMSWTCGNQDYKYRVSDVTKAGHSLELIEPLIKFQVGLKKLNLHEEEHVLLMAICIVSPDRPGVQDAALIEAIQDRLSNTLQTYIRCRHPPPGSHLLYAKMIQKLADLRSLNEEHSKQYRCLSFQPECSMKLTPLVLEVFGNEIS
# Screen size: about 400,000 compounds; about 3,700 (0.93%) were called active. The shares of active, inactive and inconclusive entries below differ from those in the screen. Calls come from the whole dose curve; as a rule, active = well fitted inhibition curve with a large enough effect; inconclusive = small, poorly fitted or top-dose-only effect, or another doubt; inactive = no such curve, though single readings can be large or run the other way. A potency beside an inconclusive call is a rough fit, not a confirmed value.
# Biological target: Vitamin D3 receptor (Homo sapiens) (UniProt P11473)
# Assay: Inhibitors of the vitamin D receptor (VDR): qHTS
# Settings: VDR-SRC2-3 peptide fluorescence polarization, 2 h; max response, negative = inhibition: stronger effect = lower value
# Outline: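 The screen uses fluorescence polarization to detect compounds that interfere with recruitment of the SRC2-3 coactivator peptide to VDR; plates are read after 2 h at room temperature.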
# % is set by controls: 0 for no effect and ±100 for the full control effect; potency is the fitted concentration of half-maximal effect.
Compound,Potency,"max response, negative = inhibition"
COc1cc(/C=C2\SC(c3ccc(C)cc3)=NC2=O)cc(OC)c1O,"inconclusive: 89.1 µM [inhibitor, single point]",–
Cc1oc(-c2ccc(F)cc2)nc1CN(Cc1ccccn1)CC1CCCO1 (configuration not stated),"inconclusive: 89.1 µM [inhibitor, partial curve, poor fit]",–
CN(Cc1cc2ccccc2[nH]c1=O)C(=O)C1CCCCC1,"inconclusive: 89.1 µM [inhibitor, single point]",–
Cc1cccc(Nc2nc(-c3ccc(O)cc3O)cs2)n1,–,inactive: -3.98%
Cc1ccc(C(=O)CCS(=O)(=O)c2ccc(F)cc2)cc1,active: 25.1 µM,–
O=C(Nc1oc2ccc(Cl)cc2c(=O)c1-c1ccc(F)cc1)c1ccco1,–,inactive: -3.04%
Cc1cc(C)cc(Cn2ncc(Cl)c(Cl)c2=O)c1,"inconclusive: 89.1 µM [inhibitor, single point]",–
Cc1ccc2c(=O)c3ccccc3n(CCCN)c2c1C,"inconclusive: 39.8 µM [inhibitor, partial curve, poor fit]",–
Cc1cccc(C(=O)Nc2nnc(S(=O)(=O)N(C)Cc3ccc(Cl)cc3)s2)c1,–,inactive: -9.65%
CCCCNC(=S)N1CCN(c2nc3ccccc3s2)CC1,"inconclusive: 10 µM [inhibitor, partial curve, poor fit]",–
CCOc1ccccc1N(CC(=O)N1CCOCC1)S(=O)(=O)c1ccccc1,"inconclusive: 39.8 µM [inhibitor, partial curve, poor fit]",–
O=C1N=c2ccc([N+](=O)[O-])cc2=C1c1sc(=O)[nH]c1O,"inconclusive: 31.6 µM [inhibitor, partial curve, poor fit]",–
O=C(Nc1cc(C(F)(F)F)ccc1-n1cncn1)c1ccc([N+](=O)[O-])o1,–,inactive: 2.78%
Cc1c(Br)c([N+](=O)[O-])nn1CCCC(=O)Nc1sc2c(c1C(N)=O)CCC(C)C2 (configuration not stated),–,inactive: -16.9%
CC1(C)CC(Nc2ccc(Nc3ccccc3)cc2)CC(C)(C)N1,"inconclusive: 89.1 µM [inhibitor, single point]",–
CC(=O)Oc1ccc2nonc2c1OC(C)=O,active: 1.41 µM,–
CCN(CC)C(=O)c1sc2c(c1C)c(=O)n(-c1ccc(Cl)c(Cl)c1)c(=O)n2Cc1cc(=O)n2ccccc2n1,–,inactive: -6.92%
Cc1ccc(-c2cc(C(=O)N3CCOCC3)no2)cc1,"inconclusive: 79.4 µM [inhibitor, single point]",–
COc1ccc(NC(=O)CCS(=O)(=O)c2ccc3c(c2)NC(=O)C(C)S3)cc1OC (configuration not stated),"inconclusive: 35.5 µM [inhibitor, single point]",–
C=CC[C@H](CC(=O)NCCO)C(=O)N[C@H](COC(=O)[C@@H](CC=C)Cc1ccc(F)cc1)C(C)(C)C,–,inactive: -5.09%
Cc1sc(NC(=O)C2C3CCC(O3)C2C(=O)O)c(C(=O)OC(C)C)c1-c1ccc(Cl)cc1 (configuration not stated),"inconclusive: 35.5 µM [inhibitor, partial curve, poor fit]",–

Compound,Potency,"max response, negative = inhibition"
Cc1ccc(NC(=O)CN(C)S(=O)(=O)c2cccc3cccnc23)cc1,–,inactive: -2.45%
O=C(c1ccco1)N1CCC[C@@]2(CCN(Cc3nccs3)C2)C1,"inconclusive: 100 µM [inhibitor, partial curve, poor fit]",–
CCS(=O)(=O)c1ncc(Cl)c(C(=O)Nc2ccc(S(=O)(=O)N3CCC(C)CC3)cc2)n1,active: 14.1 µM,–
CC(C)c1ccc(NC2CCCN(C(=O)c3ccc4nccnc4c3)C2)cc1 (configuration not stated),–,inactive: 5.3%
COc1cccc(C2NC(=O)NC(C)=C2C(=O)OCC2CCCCC2)c1 (configuration not stated),"inconclusive: 70.8 µM [inhibitor, partial curve, poor fit]",–
CCOC(=O)C1=C(C)N(CCCCCC(=O)O)C(=O)NC1c1ccccc1OS(=O)(=O)c1ccc(C)cc1 (configuration not stated),"inconclusive: 89.1 µM [inhibitor, partial curve, poor fit]",–
CC(=O)c1ccc(NC(=O)CN2CCOCC2)cc1,"inconclusive: 28.2 µM [inhibitor, full curve, poor fit]",–
COc1ccc(S(=O)(=O)NCc2ccccn2)c(C)c1C,"inconclusive: 44.7 µM [inhibitor, single point]",–
C=CCNC(=S)Nc1ccc(N(C)C)cc1,active: 79.4 µM,–
Cc1ccc(N/C=C/c2onc(C)c2[N+](=O)[O-])cc1,–,inactive: -27.2%
Cc1ccc(NC(=O)CSc2ncc(S(=O)(=O)c3ccc(C(C)C)cc3)c(=O)[nH]2)cc1C,"inconclusive: 89.1 µM [inhibitor, single point]",–
CC1(C)Cc2c(c(N3CCOCC3)nc3snc(N)c23)CO1,"inconclusive: 31.6 µM [inhibitor, full curve, poor fit]",–
C=CCN(CC=C)C(=S)NC(=O)c1ccc([N+](=O)[O-])cc1,"inconclusive: 100 µM [inhibitor, single point]",–
COC(=O)c1ccc(N2NC(=O)/C(=C/c3cc(OC)c(OC)c(OC)c3)C2=O)cc1,active: 70.8 µM,–
CC1CCN(c2ccc(NC(=S)NC(=O)c3ccc(-c4cccc([N+](=O)[O-])c4)o3)cc2)CC1,"inconclusive: 100 µM [inhibitor, single point]",–
COC(=O)c1ccccc1NC(=O)C(C)Oc1ccccc1 (configuration not stated),"inconclusive: 3.16 µM [inhibitor, single point]",–
COc1cccc(C2CC(=O)Nc3c2c(=O)n(C)c(=O)n3C)c1OC (configuration not stated),"inconclusive: 112 µM [inhibitor, partial curve, poor fit]",–
O=C1CCCCN1CC(=O)N1CCCC(Nc2ccc(F)c(F)c2)C1 (configuration not stated),"inconclusive: 39.8 µM [inhibitor, single point]",–
CSc1ccc(/C=C(\C#N)C(=O)NC2CCCCC2C)cc1 (configuration not stated),"inconclusive: 79.4 µM [inhibitor, single point]",–
CC1(c2ccc3c(c2)OCCO3)NC(=O)N(CC(=O)Nc2ccccc2SCC#N)C1=O (configuration not stated),–,inactive: 2.57%
CCOC(=O)C1=C(C)N=c2s/c(=C/c3ccc(OCC(=O)O)cc3)c(=O)n2C1c1cc(OC)c(OC)c(OC)c1 (configuration not stated),"inconclusive: 79.4 µM [inhibitor, partial curve, poor fit]",–

# Random excerpt: 3 records from the list
Compound,Potency,"max response, negative = inhibition"
CSc1ccc(/C=C(\C#N)C(=O)NC2CCCCC2C)cc1 (configuration not stated),"inconclusive: 79.4 µM [inhibitor, single point]",–
CCS(=O)(=O)c1ncc(Cl)c(C(=O)Nc2ccc(S(=O)(=O)N3CCC(C)CC3)cc2)n1,active: 14.1 µM,–
CC1(c2ccc3c(c2)OCCO3)NC(=O)N(CC(=O)Nc2ccccc2SCC#N)C1=O (configuration not stated),–,inactive: 2.57%
